Assay results reported in patent US12419871B2, “Biomolecules involved in Alzheimer's disease” (ELECTROPHORETICS LIMITED, priority 2015, dated 2025).

B1: P02749 (protein, UniProt P02749 1-345, looked up)
chain: MISPVLILFSSFLCHVAIAGRTCPKPDDLPFSTVVPLKTFYEPGEEITYSCKPGYVSRGGMRKFICPLTGLWPINTLKCTPRVCPFAGILENGAVRYTTFEYPNTISFSCNTGFYLNGADSAKCTEEGKWSPELPVCAPIICPPPSIPTFATLRVYKPSAGNNSLYRDTAVFECLPQHAMFGNDTITCTTHGNWTKLPECREVKCPFPSRPDNGFVNYPAKPTLYYKDKATFGCHDGYSLDGPEEIECTKLGNWSAMPSCKASCKVPVKKATVVYQGERVKIQEKFKNGMLHGDKVSFFCKNKEKKCSYTEDAQCIDGTIEVPKCFKEHSSLAFWKTDASDVKPC
modifications: full-length
B2: P35612 (protein, UniProt P35612 1-726, looked up)
chain: MSEETVPEAASPPPPQGQPYFDRFSEDDPEYMRLRNRAADLRQDFNLMEQKKRVTMILQSPSFREELEGLIQEQMKKGNNSSNIWALRQIADFMASTSHAVFPTSSMNVSMMTPINDLHTADSLNLAKGERLMRCKISSVYRLLDLYGWAQLSDTYVTLRVSKEQDHFLISPKGVSCSEVTASSLIKVNILGEVVEKGSSCFPVDTTGFCLHSAIYAARPDVRCIIHLHTPATAAVSAMKWGLLPVSHNALLVGDMAYYDFNGEMEQEADRINLQKCLGPTCKILVLRNHGVVALGDTVEEAFYKIFHLQAACEIQVSALSSAGGVENLILLEQEKHRPHEVGSVQWAGSTFGPMQKSRLGEHEFEALMRMLDNLGYRTGYTYRHPFVQEKTKHKSEVEIPATVTAFVFEEDGAPVPALRQHAQKQQKEKTRWLNTPNTYLRVNVADEVQRSMGSPRPKTTWMKADEVEKSSSGMPIRIENPNQFVPLYTDPQEVLEMRNKIREQNRQDVKSAGPQSQLLASVIAEKSRSPSTESQLMSKGDEDTKDDSEETVPNPFSQLTDQELEEYKKEVERKKLELDGEKETAPEEPGSPAKSAPASPVQSPAKEAETKSPLVSPSKSLEEGTKKTETSKAATTEPETTQPEGVVVNGREEEQTAEEILSKGLSQMTTSADTDVDTSKDKTESVTSGPMSPEGSPSKSPSKKKKKFRTPSFLKKSKKKEKVES
modifications: full-length
B3: Q96KN2 (protein, UniProt Q96KN2 1-507, looked up)
chain: MDPKLGRMAASLLAVLLLLLERGMFSSPSPPPALLEKVFQYIDLHQDEFVQTLKEWVAIESDSVQPVPRFRQELFRMMAVAADTLQRLGARVASVDMGPQQLPDGQSLPIPPVILAELGSDPTKGTVCFYGHLDVQPADRGDGWLTDPYVLTEVDGKLYGRGATDNKGPVLAWINAVSAFRALEQDLPVNIKFIIEGMEEAGSVALEELVEKEKDRFFSGVDYIVISDNLWISQRKPAITYGTRGNSYFMVEVKCRDQDFHSGTFGGILHEPMADLVALLGSLVDSSGHILVPGIYDEVVPLTEEEINTYKAIHLDLEEYRNSSRVEKFLFDTKEEILMHLWRYPSLSIHGIEGAFDEPGTKTVIPGRVIGKFSIRLVPHMNVSAVEKQVTRHLEDVFSKRNSSNKMVVSMTLGLHPWIANIDDTQYLAAKRAIRTVFGTEPDMIRDGSTIPIAKMFQEIVHKSVVLIPLGAVDDGEHSQNEKINRWNYIEGTKLFAAFFLEMAQLH
modifications: full-length
B4: P07686 (protein, UniProt P07686 1-556, looked up)
chain: MELCGLGLPRPPMLLALLLATLLAAMLALLTQVALVVQVAEAARAPSVSAKPGPALWPLPLLVKMTPNLLHLAPENFYISHSPNSTAGPSCTLLEEAFRRYHGYIFGFYKWHHEPAEFQAKTQVQQLLVSITLQSECDAFPNISSDESYTLLVKEPVAVLKANRVWGALRGLETFSQLVYQDSYGTFTINESTIIDSPRFSHRGILIDTSRHYLPVKIILKTLDAMAFNKFNVLHWHIVDDQSFPYQSITFPELSNKGSYSLSHVYTPNDVRMVIEYARLRGIRVLPEFDTPGHTLSWGKGQKDLLTPCYSRQNKLDSFGPINPTLNTTYSFLTTFFKEISEVFPDQFIHLGGDEVEFKCWESNPKIQDFMRQKGFGTDFKKLESFYIQKVLDIIATINKGSIVWQEVFDDKAKLAPGTIVEVWKDSAYPEELSRVTASGFPVILSAPWYLDLISYGQDWRKYYKVEPLDFGGTQKQKQLFIGGEACLWGEYVDATNLTPRLWPRASAVGERLWSSKDVRDMDDAYDRLTRHRCRMVERGIAAQPLYAGYCNHENM
modifications: full-length
B5: Q8WXS3 (protein, UniProt Q8WXS3 1-145, looked up)
chain: MGCGGSRADAIEPRYYESWTRETESTWLTYTDSDAPPSAAAPDSGPEAGGLHSGMLEDGLPSNGVPRSTAPGGIPNPEKKTNCETQCPNPQSLSSGPLTQKQNGLQTTEAKRDAKRMPAKEVTINVTDSIQQMDRSRRITKNCVN
modifications: full-length
B6: P11274 (protein, UniProt P11274 1-1271, looked up)
chain: MVDPVGFAEAWKAQFPDSEPPRMELRSVGDIEQELERCKASIRRLEQEVNQERFRMIYLQTLLAKEKKSYDRQRWGFRRAAQAPDGASEPRASASRPQPAPADGADPPPAEEPEARPDGEGSPGKARPGTARRPGAAASGERDDRGPPASVAALRSNFERIRKGHGQPGADAEKPFYVNVEFHHERGLVKVNDKEVSDRISSLGSQAMQMERKKSQHGAGSSVGDASRPPYRGRSSESSCGVDGDYEDAELNPRFLKDNLIDANGGSRPPWPPLEYQPYQSIYVGGMMEGEGKGPLLRSQSTSEQEKRLTWPRRSYSPRSFEDCGGGYTPDCSSNENLTSSEEDFSSGQSSRVSPSPTTYRMFRDKSRSPSQNSQQSFDSSSPPTPQCHKRHRHCPVVVSEATIVGVRKTGQIWPNDGEGAFHGDADGSFGTPPGYGCAADRAEEQRRHQDGLPYIDDSPSSSPHLSSKGRGSRDALVSGALESTKASELDLEKGLEMRKWVLSGILASEETYLSHLEALLLPMKPLKAAATTSQPVLTSQQIETIFFKVPELYEIHKEFYDGLFPRVQQWSHQQRVGDLFQKLASQLGVYRAFVDNYGVAMEMAEKCCQANAQFAEISENLRARSNKDAKDPTTKNSLETLLYKPVDRVTRSTLVLHDLLKHTPASHPDHPLLQDALRISQNFLSSINEEITPRRQSMTVKKGEHRQLLKDSFMVELVEGARKLRHVFLFTDLLLCTKLKKQSGGKTQQYDCKWYIPLTDLSFQMVDELEAVPNIPLVPDEELDALKIKISQIKNDIQREKRANKGSKATERLKKKLSEQESLLLLMSPSMAFRVHSRNGKSYTFLISSDYERAEWRENIREQQKKCFRSFSLTSVELQMLTNSCVKLQTVHSIPLTINKEDDESPGLYGFLNVIVHSATGFKQSSNLYCTLEVDSFGYFVNKAKTRVYRDTAEPNWNEEFEIELEGSQTLRILCYEKCYNKTKIPKEDGESTDRLMGKGQVQLDPQALQDRDWQRTVIAMNGIEVKLSVKFNSREFSLKRMPSRKQTGVFGVKIAVVTKRERSKVPYIVRQCVEEIERRGMEEVGIYRVSGVATDIQALKAAFDVNNKDVSVMMSEMDVNAIAGTLKLYFRELPEPLFTDEFYPNFAEGIALSDPVAKESCMLNLLLSLPEANLLTFLFLLDHLKRVAEKEAVNKMSLHNLATVFGPTLLRPSEKESKLPANPSQPITMTDSWSLEVMSQVQVLLYFLQLEAIPAPDSKRQSILFSTEV
modifications: full-length
B7: Q96GW7 (protein, UniProt Q96GW7 1-911, looked up)
chain: MAQLFLPLLAALVLAQAPAALADVLEGDSSEDRAFRVRIAGDAPLQGVLGGALTIPCHVHYLRPPPSRRAVLGSPRVKWTFLSRGREAEVLVARGVRVKVNEAYRFRVALPAYPASLTDVSLALSELRPNDSGIYRCEVQHGIDDSSDAVEVKVKGVVFLYREGSARYAFSFSGAQEACARIGAHIATPEQLYAAYLGGYEQCDAGWLSDQTVRYPIQTPREACYGDMDGFPGVRNYGVVDPDDLYDVYCYAEDLNGELFLGDPPEKLTLEEARAYCQERGAEIATTGQLYAAWDGGLDHCSPGWLADGSVRYPIVTPSQRCGGGLPGVKTLFLFPNQTGFPNKHSRFNVYCFRDSAQPSAIPEASNPASNPASDGLEAIVTVTETLEELQLPQEATESESRGAIYSIPIMEDGGGGSSTPEDPAEAPRTLLEFETQSMVPPTGFSEEEGKALEEEEKYEDEEEKEEEEEEEEVEDEALWAWPSELSSPGPEASLPTEPAAQEESLSQAPARAVLQPGASPLPDGESEASRPPRVHGPPTETLPTPRERNLASPSPSTLVEAREVGEATGGPELSGVPRGESEETGSSEGAPSLLPATRAPEGTRELEAPSEDNSGRTAPAGTSVQAQPVLPTDSASRGGVAVVPASGDCVPSPCHNGGTCLEEEEGVRCLCLPGYGGDLCDVGLRFCNPGWDAFQGACYKHFSTRRSWEEAETQCRMYGAHLASISTPEEQDFINNRYREYQWIGLNDRTIEGDFLWSDGVPLLYENWNPGQPDSYFLSGENCVVMVWHDQGQWSDVPCNYHLSYTCKMGLVSCGPPPELPLAQVFGRPRLRYEVDTVLRYRCREGLAQRNLPLIRCQENGRWEAPQISCVPRRPARALHPEEDPEGRQGRLLGRWKALLIPPSSPMPGP
modifications: full-length
B8: P19022 (protein, UniProt P19022 1-906, looked up)
chain: MCRIAGALRTLLPLLAALLQASVEASGEIALCKTGFPEDVYSAVLSKDVHEGQPLLNVKFSNCNGKRKVQYESSEPADFKVDEDGMVYAVRSFPLSSEHAKFLIYAQDKETQEKWQVAVKLSLKPTLTEESVKESAEVEEIVFPRQFSKHSGHLQRQKRDWVIPPINLPENSRGPFPQELVRIRSDRDKNLSLRYSVTGPGADQPPTGIFIINPISGQLSVTKPLDREQIARFHLRAHAVDINGNQVENPIDIVINVIDMNDNRPEFLHQVWNGTVPEGSKPGTYVMTVTAIDADDPNALNGMLRYRIVSQAPSTPSPNMFTINNETGDIITVAAGLDREKVQQYTLIIQATDMEGNPTYGLSNTATAVITVTDVNDNPPEFTAMTFYGEVPENRVDIIVANLTVTDKDQPHTPAWNAVYRISGGDPTGRFAIQTDPNSNDGLVTVVKPIDFETNRMFVLTVAAENQVPLAKGIQHPPQSTATVSVTVIDVNENPYFAPNPKIIRQEEGLHAGTMLTTFTAQDPDRYMQQNIRYTKLSDPANWLKIDPVNGQITTIAVLDRESPNVKNNIYNATFLASDNGIPPMSGTGTLQIYLLDINDNAPQVLPQEAETCETPDPNSINITALDYDIDPNAGPFAFDLPLSPVTIKRNWTITRLNGDFAQLNLKIKFLEAGIYEVPIIITDSGNPPKSNISILRVKVCQCDSNGDCTDVDRIVGAGLGTGAIIAILLCIIILLILVLMFVVWMKRRDKERQAKQLLIDPEDDVRDNILKYDEEGGGEEDQDYDLSQLQQPDTVEPDAIKPVGIRRMDERPIHAEPQYPVRSAAPHPGDIGDFINEGLKAADNDPTAPPYDSLLVFDYEGSGSTAGSLSSLNSSSSGGEQDYDYLNDWGPRFKKLADMYGGGDD
modifications: full-length

assay: TMTcalibrator quantification of regulated proteins in AD CSF versus control; set-up: species or system human; conditions: CSF of AD patient versus control; non-modified peptides of each protein summed for three control and three AD cases

First: B1
Second: B2
The “Log2 AD/Control” value of the first is lower: −0.70 for the first, 0.77 for the second.

Going from B3 to B4, the “Log2 AD/Control” value rises from 0.71 to 1.49.

B5 and B6 are within 0.2 log units of each other in “Log2 AD/Control” value: 0.88 for the first, 0.99 for the second.

Compared with B7, B8 is higher in “Log2 AD/Control” value: 0.69 for the first, 1.17 for the second.
